Results as given in paper PMC12564449, “Multifaceted Biological Activity of Selected Flavone C-Monoglucosides” (International Journal of Molecular Sciences, 2025).

Test: Differential pulse voltammetry: anodic peak potentials and antioxidant activity
Type: physicochemical
Settings: classification proposed by Blasco et al. [60], from Ep
Procedure: Electrochemical measurements were performed at room temperature (25 ± 2 °C) in a small-volume electrochemical cell using a potentiostat type SP-240 (BioLogic Science Instruments, Seyssinet-Pariset, France) controlled by EC-Lab V11.36 software. Differential pulse voltammograms were obtained with a pulse amplitude of 100 mV, a potential step of 5 mV, and a modulation time of 0.2 s. Four scans were registered for each sample, and the reported data correspond to the average of at least three replicates. The working electrode was a glassy carbon electrode, GCE (3 mm diameter, BASi M-2012, and the auxiliary and reference electrodes were platinum wire (BASi MW-1033) and Ag/AgCl (3 M KCl, BASi-MW-2052). All potentials are quoted against the used reference electrode. Before each scan, the surface of the glassy carbon electrode was polished on a polishing cloth with 0.05 μm alumina paste and ultrasonically rinsed in deionized water. After polishing, the electrode was washed with ultrapure water and dried with absorbent paper. DPV measurements were carried out in a standard solution of flavone C-monoglucosides and quercetin at a final concentration of 250 μM. Before measurements, the standard solutions were diluted in 0.2 M acetate-acetic buffer (in 80% methanol) at pH 5.0 (v/v: 1:1). Buffer solution also served as a supporting electrolyte. For the test purpose, from registered DPV voltammograms, the anodic oxidation potentials (Epa) in mV and the integrated area under anodic peaks in μA were determined.

Row | SMILES | antioxidant power class by first oxidation potential
1 | O=c1cc(-c2ccc(O)c(O)c2)oc2cc(O)c([C@@H]3O[C@H](CO)[C@@H](O)[C@H](O)[C@H]3O)c(O)c12 [Homoorientin (hOR), 3′,4′,5,7-tetrahydroxyflavone-6-glucoside] | high antioxidant power (high antioxidant power (Ep < 0.4 V))
2 | O=c1cc(-c2ccc(O)cc2)oc2cc(O)c([C@@H]3O[C@H](CO)[C@@H](O)[C@H](O)[C@H]3O)c(O)c12 [Isovitexin (iVT), 4′,5,7-trihydroxyflavone-6-glucoside] | low antioxidant power (low antioxidant power (0.8 V < Ep < 1.3 V))
3 | O=c1cc(-c2ccc(O)c(O)c2)oc2c([C@@H]3O[C@H](CO)[C@@H](O)[C@H](O)[C@H]3O)c(O)cc(O)c12 [Orientin (OR), 3′,4′,5,7-tetrahydroxyflavone-8-glucoside] | high antioxidant power (high antioxidant power (Ep < 0.4 V))
4 | O=c1c(O)c(-c2ccc(O)c(O)c2)oc2cc(O)cc(O)c12 [Quercetin (Q), 3,3′,4′,5,7-pentahydroxyflavone, reference compound] | high antioxidant power (high antioxidant power (Ep < 0.4 V))
5 | O=c1cc(-c2ccc(O)cc2)oc2c([C@@H]3O[C@H](CO)[C@@H](O)[C@H](O)[C@H]3O)c(O)cc(O)c12 [Vitexin (VT), 4′,5,7-trihydroxyflavone-8-glucoside] | low antioxidant power (low antioxidant power (0.8 V < Ep < 1.3 V))

Some compounds share one wording; it may come from a single statement.
